According to paper PMC10529746:
Results are given in words; binding and its absence hold for the method and conditions named. In cells and extracts the contact can be indirect. Some binding calls cover weakened binding; strength is not graded here.

By UniProt entry, the sequences of proteins in these tests, tags left out.
UniProt Q15910: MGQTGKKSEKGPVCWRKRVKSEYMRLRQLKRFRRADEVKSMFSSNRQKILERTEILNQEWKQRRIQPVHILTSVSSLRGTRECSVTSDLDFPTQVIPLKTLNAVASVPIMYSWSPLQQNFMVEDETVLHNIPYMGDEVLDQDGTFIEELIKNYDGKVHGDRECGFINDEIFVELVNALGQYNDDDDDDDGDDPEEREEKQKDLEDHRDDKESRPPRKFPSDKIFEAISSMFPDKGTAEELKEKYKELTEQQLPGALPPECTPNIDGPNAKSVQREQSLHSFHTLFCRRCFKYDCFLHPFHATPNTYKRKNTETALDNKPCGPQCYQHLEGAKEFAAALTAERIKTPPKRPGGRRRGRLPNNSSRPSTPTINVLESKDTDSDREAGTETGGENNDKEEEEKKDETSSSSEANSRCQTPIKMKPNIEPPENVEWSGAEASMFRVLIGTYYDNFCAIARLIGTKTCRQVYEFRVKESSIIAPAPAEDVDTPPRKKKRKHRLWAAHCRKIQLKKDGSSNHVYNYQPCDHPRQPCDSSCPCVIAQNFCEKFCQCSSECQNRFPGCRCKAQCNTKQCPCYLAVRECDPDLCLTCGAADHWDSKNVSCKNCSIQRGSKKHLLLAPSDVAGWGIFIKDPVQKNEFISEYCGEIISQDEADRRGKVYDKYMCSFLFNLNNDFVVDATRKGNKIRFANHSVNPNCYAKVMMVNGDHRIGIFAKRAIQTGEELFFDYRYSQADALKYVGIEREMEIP

Molecular target: histone methyltransferase enhancer of zeste homolog 2 (EZH2) (human (endogenous in PC3 and C4-2B-N)) (UniProt Q15910)
Test: co-IP; total cell lysates of NE-like cells; anti-EZH2 antibody on PC3 lysate blotted for RACGAP1, anti-RACGAP1 antibody on C4-2B-N lysate blotted for EZH2; protein A/G beads, overnight at 4°C

B1: RacGTP enzyme activating protein 1 (RACGAP1) (protein, UniProt Q9H0H5 1-632)
chain: MDTMMLNVRNLFEQLVRRVEILSEGNEVQFIQLAKDFEDFRKKWQRTDHELGKYKDLLMKAETERSALDVKLKHARNQVDVEIKRRQRAEADCEKLERQIQLIREMLMCDTSGSIQLSEEQKSALAFLNRGQPSSSNAGNKRLSTIDESGSILSDISFDKTDESLDWDSSLVKTFKLKKREKRRSTSRQFVDGPPGPVKKTRSIGSAVDQGNESIVAKTTVTVPNDGGPIEAVSTIETVPYWTRSRRKTGTLQPWNSDSTLNSRQLEPRTETDSVGTPQSNGGMRLHDFVSKTVIKPESCVPCGKRIKFGKLSLKCRDCRVVSHPECRDRCPLPCIPTLIGTPVKIGEGMLADFVSQTSPMIPSIVVHCVNEIEQRGLTETGLYRISGCDRTVKELKEKFLRVKTVPLLSKVDDIHAICSLLKDFLRNLKEPLLTFRLNRAFMEAAEITDEDNSIAAMYQAVGELPQANRDTLAFLMIHLQRVAQSPHTKMDVANLAKVFGPTIVAHAVPNPDPVTMLQDIKRQPKVVERLLSLPLEYWSQFMMVEQENIDPLHVIENSNAFSTPQTPDIKVSLLGPVTTPEHQLLKTPSSSSLSQRVRSTLTKNTPRFGSKSKSATNLGRQGNFFASPMLK
B1 was tested, and the binding was “binds”.
